{
  "source": "patent US20140221340A1",
  "about": "(KYOWA HAKKO KIRIN CO., LTD., priority 2011, published 2014)",
  "note": "Some entries share one result that the patent states for a list of compounds.",
  "data": [
    {"biological_target": "T1, human CCR10 (Homo sapiens, UniProt P46092)", "T1 construct": "expressed in transfected cells; host or cells: KJMGER8 cell (cell line derived from Namalwa cell); expression induced with 10 nmol/L β-estradiol", "T1 sequence (P46092 1-362)": "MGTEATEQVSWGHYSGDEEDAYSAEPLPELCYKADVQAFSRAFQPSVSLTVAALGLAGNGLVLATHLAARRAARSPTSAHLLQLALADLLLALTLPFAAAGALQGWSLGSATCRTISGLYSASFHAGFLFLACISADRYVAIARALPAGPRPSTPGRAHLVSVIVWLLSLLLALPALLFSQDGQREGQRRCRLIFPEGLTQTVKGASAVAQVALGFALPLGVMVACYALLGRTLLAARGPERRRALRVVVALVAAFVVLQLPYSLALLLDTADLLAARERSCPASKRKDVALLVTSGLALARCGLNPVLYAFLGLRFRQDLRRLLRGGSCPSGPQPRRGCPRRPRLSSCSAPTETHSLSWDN", "experiment": "Calcium assay of human CCR10 (inhibition of CTACK-induced increase in intracellular calcium ion concentration in hCCR10G16 cells)", "assay_type": "cell-based", "details": "at a concentration of 100 nmol/L; human recombinant CTACK", "protocol": "A CCR10-inducible expression plasmid was produced according to a known method (“Analytical Biochemistry”, 2006, vol. 400, page 163). A DNA encoding human CCR10 was obtained by PCR. Using human chromosomal DNA (100 ng; manufactured by Clontech Laboratories, Inc.) as a template, a synthetic DNA having the sequences shown by SEQ ID NOs: 1 and 2 as a human CCR10 cDNA specific primer, and Pyrobest DNA Polymerase (manufactured by TAKARA SHUZO CO. LTD.) as an enzyme, a DNA encoding human CCR10 was obtained by PCR. As a buffer solution for PCR, the buffer solution attached to the enzyme was diluted 10-fold with deionized water and used. Using Thermal Cycler DNA Engine (manufactured by MJ Research), PCR was performed by 35 cycles of reactions composed of an incubation at 90° C. for 2 min, at 94° C. for 30 seconds, at an anneal temperature of 58° C. for 30 seconds, and at 72° C. for 1 min.\nThe amplified PCR fragment was cleaved with HindIII and NotI, then a human CCR10 DNA fragment was recovered by an agarose gel electrophoresis method. The fragment was incorporated in between the corresponding restriction enzyme sites (HindIII-NotI) of an inducible expression vector, whereby a human CCR10-inducible expression plasmid were prepared.\nUsing a primer specific to the sequence of the plasmid (synthetic DNA having the sequences shown by SEQ ID NOs: 3 and 4), the sequence of human CCR10 DNA region was determined. For the determination of the base sequence, DNA sequencer 377 (manufactured by PerkinElmer) and a reaction kit (ABI Prism (registered trade mark) BigDye (registered trade mark) Terminator Cycle Sequencing Ready Reaction kit: manufactured by Applied Biosystems) were used. The sequence of human CCR10 DNA matched with the sequence (NM_016602) registered in GenBank.\nCells for the detection of the signal from human CCR10 by a calcium assay were prepared. Human CCR10-inducible expressing cells whose host cell is KJMGER8 cell (cell line derived from Namalwa cell) were prepared according to a known method (“Analy Biochem”, 2006, vol. 400, page 163). Human CCR10-inducible expression plasmid produced above and Gα16 expression plasmid were co-transfected into KJMGER8 cell by an electroporation method (“Cytotechnology”, 1990, vol. 3, page 133), whereby a signal from human CCR10 could be detected by a calcium assay (hereinafter to be referred to as hCCR10G16 cell). Gα16 expression plasmid was produced by incorporating human Gα16 DNA into expression vector pAMoh (WO03/087366). Induced expression of human CCR10 was performed by cultivating hCCR10G16 cells in the presence of 10 nmol/L β-estradiol (manufactured by Sigma Ltd.) for 24 hr.\nCells expressing human CCR10 induced by the above-mentioned method were suspended in RPMI1640 medium and adjusted to cell density of 1.25×10^6 cells/mL. This mixture was dispensed to a 384 well clear bottom plate (manufactured by Corning Incorporated) at 20 μL/well, and these were incubated at 37° C. for several dozen minutes. A loading buffer prepared according to the protocol attached to FLIPR Calcium 3 assay kit (manufactured by Molecular Device) was dispensed to this plate at 20 μL/well, and the plate was incubated at 37° C. for 60 min. A 33 μmol/L DMSO solution of the test compound was diluted 37-fold with RPMI1640 medium and the resulting solution was added at 5 μL/well, and the mixture was incubated at 37° C. for 30 min. 300 nmol/L human recombinant CTACK (manufactured by R and D Systems) diluted with RPMI1640 medium containing 1 w/v % bovine serum albumin was added at 5 μL/well. Change of the intracellular calcium ion concentration for about 5 min after the addition was measured by FLIPR (manufactured by Molecular Device) or FDSS (manufactured by Hamamatsu Photonics K.K.). The difference between the maximum fluorescence intensity and the minimum fluorescence intensity for 5 min was calculated, and taken as the measurement value (maximum fluorescence intensity−minimum fluorescence intensity). […]", "values": [
      {"smiles": "CCC(=O)NS(=O)(=O)c1cnn2c(Nc3cc(C)ccc3Cl)c(C(=O)N3CC4(C3)CN(c3ccc(F)cc3)C4)cnc12", "note": "[a-60, N-{7-(2-Chloro-5-methylphenylamino)-6-[6-(4-fluorophenyl)-2,6-diazaspiro[3,3]heptane-2-carbonyl]pyrazolo[1,5-a]pyrimidin-3-ylsulfonyl}propionamide]", "antagonistic effect against CCR10": "showed an antagonistic effect against CCR10"},
      {"smiles": "CCC(=O)NS(=O)(=O)c1cnn2c(Nc3cc(C)ccc3Cl)c(C(=O)N3CCC(c4ccc(F)cc4)CC3)cnc12", "note": "[a-13, N-{7-(2-Chloro-5-methylphenylamino)-6-[4-(4-fluorophenyl)piperidine-1-carbonyl]pyrazolo[1,5-a]pyrimidin-3-ylsulfonyl}ethanecarboxamide]", "antagonistic effect against CCR10": "showed an antagonistic effect against CCR10"},
      {"smiles": "O=C(NS(=O)(=O)c1cnn2c(NCc3ccccc3)c(C(=O)N3CCC(c4ccccc4)CC3)cnc12)C1CC1", "note": "[a-75, N-[7-Benzylamino-6-(4-phenylpiperidine-1-carbonyl)pyrazolo[1,5-a]pyrimidin-3-ylsulfonyl]cyclopropanecarboxamide]", "antagonistic effect against CCR10": "showed an antagonistic effect against CCR10"},
      {"smiles": "CNCC(=O)NS(=O)(=O)c1cnn2c(Nc3ccc(F)cc3C)c(C(=O)N3CCC(c4ccccc4)CC3)cnc12", "note": "[a-63, N-[7-(4-Fluoro-2-methylphenylamino)-6-(4-phenylpiperidine-1-carbonyl)pyrazolo[1,5-a]pyrimidin-3-ylsulfonyl]-2-methylaminoacetamide]", "antagonistic effect against CCR10": "showed an antagonistic effect against CCR10"},
      {"smiles": "CCNS(=O)(=O)c1cnn2c(Nc3ccc(F)cc3C)c(C(=O)N3CCC(c4ccc(F)cc4)CC3)cnc12", "note": "[a-3, N-Ethyl-7-(4-fluoro-2-methylphenylamino)-6-[4-(4-fluorophenyl)piperidine-1-carbonyl]pyrazolo[1,5-a]pyrimidine-3-sulfonamide]", "antagonistic effect against CCR10": "showed an antagonistic effect against CCR10"},
      {"smiles": "CC(=O)NS(=O)(=O)c1cnn2c(Nc3cc(F)ccc3F)c(C(=O)N3CCC(c4ccc(F)cc4)CC3)cnc12", "note": "[a-35, N-{7-(2,5-Difluorophenylamino)-6-[4-(4-fluorophenyl)piperidine-1-carbonyl]pyrazolo[1,5-a]pyrimidin-3-ylsulfonyl}acetamide]", "antagonistic effect against CCR10": "showed an antagonistic effect against CCR10"},
      {"smiles": "CCNC(=O)NS(=O)(=O)c1cnn2c(Nc3ccccc3Cl)c(C(=O)N3CCC(c4ccc(F)cc4)CC3)cnc12", "note": "[a-10, 7-(2-Chlorophenylamino)-N-(ethylcarbamoyl)-6-[4-(4-fluorophenyl)piperidine-1-carbonyl]pyrazolo[1,5-a]pyrimidine-3-sulfonamide]", "antagonistic effect against CCR10": "showed an antagonistic effect against CCR10"},
      {"smiles": "O=CNS(=O)(=O)c1cnn2c(Nc3cc(Cl)ccc3Cl)c(C(=O)N3CCC(c4ccc(F)cc4)CC3)cnc12", "note": "[a-26, N-{7-(2,5-Dichlorophenylamino)-6-[4-(4-fluorophenyl)piperidine-1-carbonyl]pyrazolo[1,5-a]pyrimidin-3-ylsulfonyl}formamide]", "antagonistic effect against CCR10": "showed an antagonistic effect against CCR10"},
      {"smiles": "CC(=O)NS(=O)(=O)c1cnn2c(Nc3cccc(Cl)c3Cl)c(C(=O)N3CCC(c4ccc(F)cc4)CC3)cnc12", "note": "[a-38, N-{7-(2,3-Dichlorophenylamino)-6-[4-(4-fluorophenyl)piperidine-1-carbonyl]pyrazolo[1,5-a]pyrimidin-3-ylsulfonyl}acetamide]", "antagonistic effect against CCR10": "showed an antagonistic effect against CCR10"},
      {"smiles": "O=C(c1cnc2c(S(=O)(=O)Nc3ncccn3)cnn2c1Nc1cc(Cl)ccc1Cl)N1CCC(c2ccc(F)cc2)CC1", "note": "[a-80, 7-(2,5-Dichlorophenylamino)-6-[4-(4-fluorophenyl)piperidine-1-carbonyl]-N-(pyrimidin-2-yl)pyrazolo[1,5-a]pyrimidine-3-sulfonamide]", "antagonistic effect against CCR10": "showed an antagonistic effect against CCR10"}
    ]}
  ]
}
